{"source": "PubChem BioAssay AID686943 – Drosophila RNAi Screening Center | 2013", "test": "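Knockdowns that increase or decrease active ERK after insulin receptor stimulation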 (primary screen)", "system": "Drosophila S2R+ haemocyte-like cells expressing YFP-tagged ERK (Rolled)", "knock-down reagent": "long dsRNA against Drosophila genes", "treatment": "insulin stimulation versus unstimulated cells; dose and duration not given", "measured": "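Antibody staining for doubly phosphorylated ERK divided by ERK-YFP signal, as plate z-scores, in insulin-treated and untreated cells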", "direction": "replicate 1, z-score of dpERK with insulin and replicate 2, z-score of dpERK with insulin: higher = more active ERK per ERK-YFP after insulin", "note": "In all, the deposit lists about 23,000 reagents; shown is a random part of those that have a named target and a result. 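Extra replicates exist only for a retested subset of genes; insulin dose and duration not given; both raised and lowered dpERK matter.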 Further read-outs or replicates are left out here. The record does not give: the amount of reagent, the time to read-out."}
The first 3 records, to show the layout:
{"Target gene": "COX7C (Cytochrome c oxidase subunit 7C)", "amplicon": "DRSC06831", "replicate 1, z-score of dpERK with insulin": -0.52, "replicate 2, z-score of dpERK with insulin": -1.43}
{"Target gene": "Pvf1 (PDGF- and VEGF-related factor 1)", "amplicon": "DRSC20024", "replicate 1, z-score of dpERK with insulin": 1.05, "replicate 2, z-score of dpERK with insulin": 0.38}
{"Target gene": "CG32436", "amplicon": "DRSC11683", "replicate 1, z-score of dpERK with insulin": -1.54, "replicate 2, z-score of dpERK with insulin": 0.17}

The list itself, from the first entry:
{"Target gene": "COX7C (Cytochrome c oxidase subunit 7C)", "amplicon": "DRSC06831", "replicate 1, z-score of dpERK with insulin": -0.52, "replicate 2, z-score of dpERK with insulin": -1.43}
{"Target gene": "Pvf1 (PDGF- and VEGF-related factor 1)", "amplicon": "DRSC20024", "replicate 1, z-score of dpERK with insulin": 1.05, "replicate 2, z-score of dpERK with insulin": 0.38}
{"Target gene": "CG32436", "amplicon": "DRSC11683", "replicate 1, z-score of dpERK with insulin": -1.54, "replicate 2, z-score of dpERK with insulin": 0.17}
{"Target gene": "CG32436", "amplicon": "DRSC11796", "replicate 1, z-score of dpERK with insulin": -0.69, "replicate 2, z-score of dpERK with insulin": -0.31}
{"Target gene": "ND-13A (NADH dehydrogenase (ubiquinone) 13 kDa A subunit)", "amplicon": "DRSC03110", "replicate 1, z-score of dpERK with insulin": 0.25, "replicate 2, z-score of dpERK with insulin": 0.32}
{"Target gene": "CG14282", "amplicon": "DRSC14763", "replicate 1, z-score of dpERK with insulin": -0.04, "replicate 2, z-score of dpERK with insulin": -0.25}
{"Target gene": "RhoGAP16F (Rho GTPase activating protein at 16F)", "amplicon": "DRSC20025", "replicate 1, z-score of dpERK with insulin": -0.58, "replicate 2, z-score of dpERK with insulin": 0.44}
{"Target gene": "CG31549", "amplicon": "DRSC21688", "replicate 1, z-score of dpERK with insulin": 1.35, "replicate 2, z-score of dpERK with insulin": 1.03}
{"Target gene": "Shc (SHC-adaptor protein)", "amplicon": "DRSC11284", "replicate 1, z-score of dpERK with insulin": -1.5, "replicate 2, z-score of dpERK with insulin": -1.72}
{"Target gene": "CG12128", "amplicon": "DRSC06104", "replicate 1, z-score of dpERK with insulin": 0.32, "replicate 2, z-score of dpERK with insulin": -0.24}
{"Target gene": "CG14230", "amplicon": "DRSC19586", "replicate 1, z-score of dpERK with insulin": 1.77, "replicate 2, z-score of dpERK with insulin": 1.74}
{"Target gene": "CG14492", "amplicon": "DRSC06463", "replicate 1, z-score of dpERK with insulin": -0.12, "replicate 2, z-score of dpERK with insulin": -0.34}
{"Target gene": "eEF2 (eukaryotic translation elongation factor 2)", "amplicon": "DRSC03737", "replicate 1, z-score of dpERK with insulin": -1.87, "replicate 2, z-score of dpERK with insulin": -1.45}
{"Target gene": "Nak (Numb-associated kinase)", "amplicon": "DRSC03379", "replicate 1, z-score of dpERK with insulin": 0.33, "replicate 2, z-score of dpERK with insulin": -0.21}
{"Target gene": "CCT6 (Chaperonin containing TCP1 subunit 6)", "amplicon": "DRSC20095", "replicate 1, z-score of dpERK with insulin": -0.14, "replicate 2, z-score of dpERK with insulin": 0.02}
{"Target gene": "smg (smaug)", "amplicon": "DRSC11397", "replicate 1, z-score of dpERK with insulin": 0.03, "replicate 2, z-score of dpERK with insulin": 0.43}
{"Target gene": "CG43063", "amplicon": "DRSC12948", "replicate 1, z-score of dpERK with insulin": -0.03, "replicate 2, z-score of dpERK with insulin": 0}
{"Target gene": "Fdx2 (Ferredoxin 2)", "amplicon": "DRSC08306", "replicate 1, z-score of dpERK with insulin": 0.69, "replicate 2, z-score of dpERK with insulin": 0.94}
{"Target gene": "ear (ENL/AF9-related)", "amplicon": "DRSC15675", "replicate 1, z-score of dpERK with insulin": 0.84, "replicate 2, z-score of dpERK with insulin": 0.79}
{"Target gene": "IntS1 (Integrator 1)", "amplicon": "DRSC04343", "replicate 1, z-score of dpERK with insulin": -2.06, "replicate 2, z-score of dpERK with insulin": -2.95}
{"Target gene": "lncRNA:yar (yellow-achaete intergenic RNA)", "amplicon": "DRSC17679", "replicate 1, z-score of dpERK with insulin": 0.11, "replicate 2, z-score of dpERK with insulin": -0.04}
{"Target gene": "lncRNA:yar (yellow-achaete intergenic RNA)", "amplicon": "DRSC21708", "replicate 1, z-score of dpERK with insulin": -0.72, "replicate 2, z-score of dpERK with insulin": -0.1}
{"Target gene": "CG3106", "amplicon": "DRSC18279", "replicate 1, z-score of dpERK with insulin": 0.68, "replicate 2, z-score of dpERK with insulin": 0.28}
{"Target gene": "CG9143", "amplicon": "DRSC07338", "replicate 1, z-score of dpERK with insulin": 0.96, "replicate 2, z-score of dpERK with insulin": 0.69}
{"Target gene": "ZAP3", "amplicon": "DRSC17852", "replicate 1, z-score of dpERK with insulin": 0.35, "replicate 2, z-score of dpERK with insulin": 0.95}
{"Target gene": "ZAP3", "amplicon": "DRSC17853", "replicate 1, z-score of dpERK with insulin": 0.5, "replicate 2, z-score of dpERK with insulin": 1.42}
{"Target gene": "ZAP3", "amplicon": "DRSC18249", "replicate 1, z-score of dpERK with insulin": 1.92, "replicate 2, z-score of dpERK with insulin": 1.36}
{"Target gene": "lbl (ladybird late)", "amplicon": "DRSC16986", "replicate 1, z-score of dpERK with insulin": 0.8, "replicate 2, z-score of dpERK with insulin": 0.13}
{"Target gene": "Sirt4 (Sirtuin 4)", "amplicon": "DRSC18290", "replicate 1, z-score of dpERK with insulin": -0.21, "replicate 2, z-score of dpERK with insulin": 0.02}
{"Target gene": "CG11380", "amplicon": "DRSC18632", "replicate 1, z-score of dpERK with insulin": -3.64, "replicate 2, z-score of dpERK with insulin": -1.97}
{"Target gene": "CG32249", "amplicon": "DRSC08101", "replicate 1, z-score of dpERK with insulin": 0.82, "replicate 2, z-score of dpERK with insulin": 0.72}
{"Target gene": "CG32249", "amplicon": "DRSC08177", "replicate 1, z-score of dpERK with insulin": 1.12, "replicate 2, z-score of dpERK with insulin": 0.61}
{"Target gene": "CG32249", "amplicon": "DRSC22444", "replicate 1, z-score of dpERK with insulin": -0.17, "replicate 2, z-score of dpERK with insulin": -0.41}
